From article PMC8429170, “Ligand-binding and -scavenging of the chemerin receptor GPR1” (Cellular and Molecular Life Sciences: CMLS, 2021)
No constants are given. Whether binding was seen depends on the method and setting. In cells and extracts the contact can be indirect. Some binding calls cover weakened binding; strength is not graded here. Sequences can lack the tags named with a protein.

By UniProt entry, the sequences of proteins in these tests, tags left out.
UniProt P32120: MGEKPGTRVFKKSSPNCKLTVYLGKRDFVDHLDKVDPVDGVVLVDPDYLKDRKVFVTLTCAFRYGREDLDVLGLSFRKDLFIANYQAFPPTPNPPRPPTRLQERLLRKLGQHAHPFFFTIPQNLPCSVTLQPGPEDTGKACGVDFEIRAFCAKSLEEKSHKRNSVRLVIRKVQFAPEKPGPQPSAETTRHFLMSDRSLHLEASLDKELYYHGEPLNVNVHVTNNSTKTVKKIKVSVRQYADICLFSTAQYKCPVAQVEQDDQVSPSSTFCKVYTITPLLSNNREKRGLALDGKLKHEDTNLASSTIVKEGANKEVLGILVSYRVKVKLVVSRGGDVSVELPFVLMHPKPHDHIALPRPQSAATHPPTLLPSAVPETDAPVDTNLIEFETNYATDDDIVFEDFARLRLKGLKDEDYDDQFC

T1: CMKLR1-eYFP (UniProt Q99788)
T1 sequence: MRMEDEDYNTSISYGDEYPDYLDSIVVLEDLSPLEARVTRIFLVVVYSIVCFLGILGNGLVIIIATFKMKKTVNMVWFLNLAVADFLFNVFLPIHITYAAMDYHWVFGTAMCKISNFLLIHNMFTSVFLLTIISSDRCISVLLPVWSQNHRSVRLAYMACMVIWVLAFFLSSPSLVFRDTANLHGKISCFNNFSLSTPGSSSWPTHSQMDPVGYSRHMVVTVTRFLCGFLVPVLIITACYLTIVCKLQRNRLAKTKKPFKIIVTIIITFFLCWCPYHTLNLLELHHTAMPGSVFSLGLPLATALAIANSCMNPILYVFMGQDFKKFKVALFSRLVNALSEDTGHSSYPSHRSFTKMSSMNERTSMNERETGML

T2: GPR1-eYFP (human) (UniProt P46091)
T2 sequence: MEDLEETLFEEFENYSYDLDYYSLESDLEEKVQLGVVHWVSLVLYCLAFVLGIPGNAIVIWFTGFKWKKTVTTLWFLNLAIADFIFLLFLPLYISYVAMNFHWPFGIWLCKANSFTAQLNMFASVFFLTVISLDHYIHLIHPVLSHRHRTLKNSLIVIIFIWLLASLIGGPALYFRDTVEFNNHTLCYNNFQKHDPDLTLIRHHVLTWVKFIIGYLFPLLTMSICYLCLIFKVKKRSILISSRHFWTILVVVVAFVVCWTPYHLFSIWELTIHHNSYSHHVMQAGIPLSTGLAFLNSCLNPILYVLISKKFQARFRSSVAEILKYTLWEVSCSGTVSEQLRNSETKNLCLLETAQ

T3: Nluc-GPR1-eYFP (wild type) (human) (UniProt P46091)
T3 sequence: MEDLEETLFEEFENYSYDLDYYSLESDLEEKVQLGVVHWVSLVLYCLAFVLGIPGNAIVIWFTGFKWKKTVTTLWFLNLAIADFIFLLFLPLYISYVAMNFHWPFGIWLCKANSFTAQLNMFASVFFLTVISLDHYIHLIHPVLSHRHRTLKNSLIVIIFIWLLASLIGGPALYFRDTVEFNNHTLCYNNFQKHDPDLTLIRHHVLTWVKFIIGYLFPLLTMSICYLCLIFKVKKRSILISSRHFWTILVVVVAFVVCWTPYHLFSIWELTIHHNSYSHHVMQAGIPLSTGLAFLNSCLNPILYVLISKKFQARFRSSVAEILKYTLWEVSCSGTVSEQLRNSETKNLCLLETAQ


Assays:
CMKLR1-eYFP = biological target: T1, CMKLR1-eYFP; assay: FRET or BRET; arrestin3 recruitment: COS-7 cells co-transfected with GPR1-eYFP or CMKLR1-eYFP and Rluc8-Arr3, stimulated with agonist (ChemS157 or chemerin-9) in BRET buffer (25 mM HEPES, pH 7.4 in HBSS), coelenterazine H; kinetics over 20 min or read after 10 min
GPR1-eYFP (human) = biological target: T2, GPR1-eYFP (human); assay: as above
[1] = biological target: T3, Nluc-GPR1-eYFP (wild type) (human); assay: FRET or BRET; NanoBRET ligand binding: COS-7 cells transiently expressing the Nluc-GPR1-eYFP construct, Tam-labeled peptide added in BRET buffer (25 mM HEPES, pH 7.4 in HBSS), furimazine; Tam emission 550-700 nm over NanoLuc luminescence 430-470 nm; 37 °C; only the binder purified

Row | binding (CMKLR1-eYFP) | binding (GPR1-eYFP (human)) | binding [1] | Molecule
1 | binds | binds | – | Rluc8-Arr3 (from UniProt P32120 1-420)
2 | – | – | binds | QFYSFFPAG (Tam on the N-terminus through an ethylene glycol linker (EG(4))) [Tam-EG(4)-scr2C9]
